PubChem BioAssay AID504774 | Drosophila RNAi Screening Center | 2011
Test: 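Knock-downs that shift viability of MMS-exposed cells relative to untreated ones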 (primary screen). System: Drosophila Kc167 cells. Reagents: long dsRNA against Drosophila genes, about 0.25 µg dsRNA per well. Timing: about 6 days: 3 days knock-down, then 3 days with or without MMS. Conditions: methyl methanesulphonate 0.004% (w/v) for 3 days after knock-down. Read-out: 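ATP-dependent luminescence as a measure of live cells in MMS-exposed wells, quantile normalised within each plate, with replicate values also given as a mean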. Direction: mean viability with MMS and viability with MMS: higher = more surviving cells after MMS.
In all, the deposit lists about 23,000 reagents; below is an unselected part of those with a known target gene and a result. 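Values are quantile-normalised luminescence on an arbitrary scale; higher means more cells surviving MMS.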 A plus sign joins genes that one reagent is predicted to hit. Further read-outs or replicates are left out here.

Naa15-16 (N(alpha)-acetyltransferase 15/16) [SID104199232] | mean viability with MMS: 1.96e6; viability with MMS, replicate 1: 4.10e6
Naa15-16 (N(alpha)-acetyltransferase 15/16) [SID104202205] | mean viability with MMS: 3.58e6; viability with MMS, replicate 1: 4.04e6
alien [SID104183274] | mean viability with MMS: 3.41e6; viability with MMS, replicate 1: 4.06e6
Vps39 (Vacuolar protein sorting 39) [SID104195997] | mean viability with MMS: 3.44e6; viability with MMS, replicate 1: 3.96e6
CG5122 [SID104182608] | mean viability with MMS: 3.57e6; viability with MMS, replicate 1: 4.03e6
CG32313 [SID104201191] | mean viability with MMS: 3.56e6; viability with MMS, replicate 1: 4.01e6
MKP-4 (MAPK Phosphatase 4) [SID104199359] | mean viability with MMS: 3.66e6; viability with MMS, replicate 1: 4.23e6
Cdc2rk (Cdc2-related kinase) [SID104187382] | mean viability with MMS: 3.53e6; viability with MMS, replicate 1: 4.05e6
Fign (Fidgetin) [SID104180384] | mean viability with MMS: 3.71e6; viability with MMS, replicate 1: 4.31e6
CG8008 [SID104186845] | mean viability with MMS: 3.55e6; viability with MMS, replicate 1: 4.05e6
CG30196 [SID104183948] | mean viability with MMS: 3.72e6; viability with MMS, replicate 1: 4.16e6
Rif1 (Rap1 interacting factor 1) [SID104185385] | mean viability with MMS: 3.37e6; viability with MMS, replicate 1: 3.91e6
CG31687 + Cdc23 [SID104202409] | mean viability with MMS: 3.08e6; viability with MMS, replicate 1: 3.37e6
CG17974 [SID104184091] | mean viability with MMS: 3.72e6; viability with MMS, replicate 1: 4.18e6
mld (molting defective) [SID104193473] | mean viability with MMS: 3.49e6; viability with MMS, replicate 1: 3.93e6
mld (molting defective) [SID104194414] | mean viability with MMS: 3.63e6; viability with MMS, replicate 1: 4.05e6
mld (molting defective) [SID104201437] | mean viability with MMS: 3.28e6; viability with MMS, replicate 1: 3.80e6
CG33648 [SID104181179] | mean viability with MMS: 3.64e6; viability with MMS, replicate 1: 4.02e6
CG31021 [SID104201822] | mean viability with MMS: 3.46e6; viability with MMS, replicate 1: 3.92e6
CG16781 [SID104197909] | mean viability with MMS: 3.46e6; viability with MMS, replicate 1: 3.86e6
DIP-alpha (Dpr-interacting protein alpha) [SID104197683] | mean viability with MMS: 1.81e6; viability with MMS, replicate 1: 3.90e6
DIP-alpha (Dpr-interacting protein alpha) [SID104197684] | mean viability with MMS: 3.11e6; viability with MMS, replicate 1: 3.66e6
DIP-alpha (Dpr-interacting protein alpha) [SID104202632] | mean viability with MMS: 3.60e6; viability with MMS, replicate 1: 4.02e6
CG17024 (retired record) [SID104182354] | mean viability with MMS: 3.85e6; viability with MMS, replicate 1: 4.31e6
